Assay results from the supplement of paper PMC12819154, “High-throughput peptide-centric local stability assay extends protein–ligand identification to membrane proteins, tissues and bacteria” (Nature Structural & Molecular Biology, 2025).
Some of the results follow. Most entries show no effect beyond the scatter of the controls.

Chains of the proteins cited; added tags and fusions are not shown. Lines headed by an entry give the natural chain unless they say otherwise; changes in a name come on top.
UniProt Q9D6N5: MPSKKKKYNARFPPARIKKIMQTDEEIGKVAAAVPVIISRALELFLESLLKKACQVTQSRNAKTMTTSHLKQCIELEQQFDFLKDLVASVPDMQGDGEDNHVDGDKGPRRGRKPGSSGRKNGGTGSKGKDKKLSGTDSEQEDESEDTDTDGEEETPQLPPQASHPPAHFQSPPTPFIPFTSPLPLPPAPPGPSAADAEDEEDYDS
UniProt Q9D6J3: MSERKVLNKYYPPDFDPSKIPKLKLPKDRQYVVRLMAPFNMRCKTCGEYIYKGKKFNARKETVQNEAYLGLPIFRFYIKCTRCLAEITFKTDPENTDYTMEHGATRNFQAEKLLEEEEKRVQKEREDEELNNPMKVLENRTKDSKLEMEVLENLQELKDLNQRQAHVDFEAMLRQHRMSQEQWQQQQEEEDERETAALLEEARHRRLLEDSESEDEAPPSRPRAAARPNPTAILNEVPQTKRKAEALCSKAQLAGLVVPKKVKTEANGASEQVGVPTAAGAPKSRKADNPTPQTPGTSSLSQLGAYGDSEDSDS
UniProt Q9D1G2: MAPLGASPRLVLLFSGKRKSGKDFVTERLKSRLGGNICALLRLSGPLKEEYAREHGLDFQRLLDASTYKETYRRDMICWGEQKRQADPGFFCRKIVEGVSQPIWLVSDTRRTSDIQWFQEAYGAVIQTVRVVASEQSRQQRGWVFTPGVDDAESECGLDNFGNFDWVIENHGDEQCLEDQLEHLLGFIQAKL
UniProt Q9D172: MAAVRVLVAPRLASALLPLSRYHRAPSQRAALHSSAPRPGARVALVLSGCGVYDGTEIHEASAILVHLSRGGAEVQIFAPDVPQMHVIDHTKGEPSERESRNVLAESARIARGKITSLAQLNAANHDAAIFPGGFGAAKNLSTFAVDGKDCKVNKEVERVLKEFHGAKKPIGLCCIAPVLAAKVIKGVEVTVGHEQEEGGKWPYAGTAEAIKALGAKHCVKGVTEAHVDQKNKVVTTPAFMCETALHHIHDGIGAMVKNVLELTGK
UniProt Q9D281: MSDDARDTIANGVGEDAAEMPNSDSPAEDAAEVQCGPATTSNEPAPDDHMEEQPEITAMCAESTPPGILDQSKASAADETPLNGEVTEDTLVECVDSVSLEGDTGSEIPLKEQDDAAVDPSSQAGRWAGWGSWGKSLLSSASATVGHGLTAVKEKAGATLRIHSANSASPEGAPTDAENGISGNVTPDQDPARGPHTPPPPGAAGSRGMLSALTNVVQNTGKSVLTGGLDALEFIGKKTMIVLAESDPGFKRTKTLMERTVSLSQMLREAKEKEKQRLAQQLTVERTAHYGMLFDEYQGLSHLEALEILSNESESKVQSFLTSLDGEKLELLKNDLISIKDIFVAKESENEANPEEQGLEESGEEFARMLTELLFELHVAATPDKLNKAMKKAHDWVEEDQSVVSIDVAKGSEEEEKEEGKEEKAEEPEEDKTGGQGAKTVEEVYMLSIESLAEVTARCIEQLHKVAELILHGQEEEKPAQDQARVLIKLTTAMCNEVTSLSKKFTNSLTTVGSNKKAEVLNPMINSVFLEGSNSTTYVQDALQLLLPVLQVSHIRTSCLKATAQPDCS
UniProt Q9D2C2: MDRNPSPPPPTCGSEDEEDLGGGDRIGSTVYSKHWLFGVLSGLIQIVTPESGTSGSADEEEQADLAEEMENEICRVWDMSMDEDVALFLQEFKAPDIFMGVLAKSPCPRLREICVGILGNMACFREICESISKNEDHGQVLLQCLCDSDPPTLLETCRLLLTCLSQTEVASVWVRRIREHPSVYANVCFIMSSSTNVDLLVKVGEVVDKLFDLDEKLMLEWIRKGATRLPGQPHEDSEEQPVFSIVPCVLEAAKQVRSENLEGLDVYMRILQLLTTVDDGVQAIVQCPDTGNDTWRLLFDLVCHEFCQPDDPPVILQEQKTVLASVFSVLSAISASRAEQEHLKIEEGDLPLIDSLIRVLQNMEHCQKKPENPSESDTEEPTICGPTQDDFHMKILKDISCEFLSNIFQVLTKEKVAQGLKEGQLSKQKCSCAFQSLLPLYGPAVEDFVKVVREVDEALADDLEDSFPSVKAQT
UniProt Q9D958: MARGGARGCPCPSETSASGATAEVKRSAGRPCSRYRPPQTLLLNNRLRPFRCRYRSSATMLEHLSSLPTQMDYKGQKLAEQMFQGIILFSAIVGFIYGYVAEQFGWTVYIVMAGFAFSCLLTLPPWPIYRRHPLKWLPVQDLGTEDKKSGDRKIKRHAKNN
UniProt Q9D8W5: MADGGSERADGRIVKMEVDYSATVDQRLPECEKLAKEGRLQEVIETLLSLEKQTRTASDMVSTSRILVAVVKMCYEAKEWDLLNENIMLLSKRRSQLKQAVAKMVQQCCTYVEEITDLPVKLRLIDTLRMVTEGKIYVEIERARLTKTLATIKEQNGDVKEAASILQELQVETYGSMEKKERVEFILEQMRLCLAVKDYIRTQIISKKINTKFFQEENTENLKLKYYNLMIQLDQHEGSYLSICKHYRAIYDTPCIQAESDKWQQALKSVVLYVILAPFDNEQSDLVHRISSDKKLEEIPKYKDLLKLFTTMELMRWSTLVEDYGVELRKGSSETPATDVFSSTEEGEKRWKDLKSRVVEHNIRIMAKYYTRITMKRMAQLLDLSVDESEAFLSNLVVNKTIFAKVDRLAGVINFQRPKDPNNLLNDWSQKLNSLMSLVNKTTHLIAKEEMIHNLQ
UniProt Q9D819: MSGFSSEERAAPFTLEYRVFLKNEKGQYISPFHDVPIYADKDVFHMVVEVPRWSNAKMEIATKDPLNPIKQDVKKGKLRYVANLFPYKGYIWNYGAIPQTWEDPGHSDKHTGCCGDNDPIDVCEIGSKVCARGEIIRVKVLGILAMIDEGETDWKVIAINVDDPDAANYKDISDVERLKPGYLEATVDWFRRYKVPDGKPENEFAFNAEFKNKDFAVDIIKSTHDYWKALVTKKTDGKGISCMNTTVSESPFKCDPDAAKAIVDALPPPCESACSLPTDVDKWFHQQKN
UniProt Q9D1Q1: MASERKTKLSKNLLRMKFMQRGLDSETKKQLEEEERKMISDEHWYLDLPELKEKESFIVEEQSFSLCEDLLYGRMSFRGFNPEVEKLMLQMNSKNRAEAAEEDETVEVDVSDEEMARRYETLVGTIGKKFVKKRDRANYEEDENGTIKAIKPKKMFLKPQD
UniProt Q9D168, whole entry: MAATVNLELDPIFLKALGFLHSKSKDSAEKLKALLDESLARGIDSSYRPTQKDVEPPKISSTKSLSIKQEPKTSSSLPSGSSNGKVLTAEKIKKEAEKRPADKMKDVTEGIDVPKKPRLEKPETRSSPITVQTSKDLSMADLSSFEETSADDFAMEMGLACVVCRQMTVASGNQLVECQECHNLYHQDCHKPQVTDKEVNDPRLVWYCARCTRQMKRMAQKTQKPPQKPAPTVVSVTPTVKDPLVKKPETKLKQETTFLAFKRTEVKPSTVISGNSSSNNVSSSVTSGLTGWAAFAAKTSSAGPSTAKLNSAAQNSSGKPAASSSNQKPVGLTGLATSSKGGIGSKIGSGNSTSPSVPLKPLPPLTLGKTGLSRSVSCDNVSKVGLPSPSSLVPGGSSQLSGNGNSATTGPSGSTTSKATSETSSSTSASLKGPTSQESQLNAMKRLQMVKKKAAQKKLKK
UniProt Q9D2R0: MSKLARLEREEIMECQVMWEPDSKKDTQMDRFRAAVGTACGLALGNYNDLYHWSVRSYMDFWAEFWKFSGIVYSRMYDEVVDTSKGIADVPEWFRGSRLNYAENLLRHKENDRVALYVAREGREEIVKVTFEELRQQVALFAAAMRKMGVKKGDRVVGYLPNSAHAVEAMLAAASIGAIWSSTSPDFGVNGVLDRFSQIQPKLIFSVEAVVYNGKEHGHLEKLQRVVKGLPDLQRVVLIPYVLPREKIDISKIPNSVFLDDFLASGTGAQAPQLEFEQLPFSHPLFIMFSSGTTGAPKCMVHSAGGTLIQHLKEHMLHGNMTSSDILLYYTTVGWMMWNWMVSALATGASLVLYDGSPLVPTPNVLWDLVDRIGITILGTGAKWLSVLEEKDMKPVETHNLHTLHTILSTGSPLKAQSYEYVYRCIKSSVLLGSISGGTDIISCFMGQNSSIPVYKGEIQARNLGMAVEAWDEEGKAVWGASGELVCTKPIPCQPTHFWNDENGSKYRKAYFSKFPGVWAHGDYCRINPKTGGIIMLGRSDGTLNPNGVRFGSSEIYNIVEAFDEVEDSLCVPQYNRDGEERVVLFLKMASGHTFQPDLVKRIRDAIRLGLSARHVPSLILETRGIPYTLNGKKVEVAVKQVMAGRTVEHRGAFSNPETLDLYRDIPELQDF
UniProt Q9D2G5: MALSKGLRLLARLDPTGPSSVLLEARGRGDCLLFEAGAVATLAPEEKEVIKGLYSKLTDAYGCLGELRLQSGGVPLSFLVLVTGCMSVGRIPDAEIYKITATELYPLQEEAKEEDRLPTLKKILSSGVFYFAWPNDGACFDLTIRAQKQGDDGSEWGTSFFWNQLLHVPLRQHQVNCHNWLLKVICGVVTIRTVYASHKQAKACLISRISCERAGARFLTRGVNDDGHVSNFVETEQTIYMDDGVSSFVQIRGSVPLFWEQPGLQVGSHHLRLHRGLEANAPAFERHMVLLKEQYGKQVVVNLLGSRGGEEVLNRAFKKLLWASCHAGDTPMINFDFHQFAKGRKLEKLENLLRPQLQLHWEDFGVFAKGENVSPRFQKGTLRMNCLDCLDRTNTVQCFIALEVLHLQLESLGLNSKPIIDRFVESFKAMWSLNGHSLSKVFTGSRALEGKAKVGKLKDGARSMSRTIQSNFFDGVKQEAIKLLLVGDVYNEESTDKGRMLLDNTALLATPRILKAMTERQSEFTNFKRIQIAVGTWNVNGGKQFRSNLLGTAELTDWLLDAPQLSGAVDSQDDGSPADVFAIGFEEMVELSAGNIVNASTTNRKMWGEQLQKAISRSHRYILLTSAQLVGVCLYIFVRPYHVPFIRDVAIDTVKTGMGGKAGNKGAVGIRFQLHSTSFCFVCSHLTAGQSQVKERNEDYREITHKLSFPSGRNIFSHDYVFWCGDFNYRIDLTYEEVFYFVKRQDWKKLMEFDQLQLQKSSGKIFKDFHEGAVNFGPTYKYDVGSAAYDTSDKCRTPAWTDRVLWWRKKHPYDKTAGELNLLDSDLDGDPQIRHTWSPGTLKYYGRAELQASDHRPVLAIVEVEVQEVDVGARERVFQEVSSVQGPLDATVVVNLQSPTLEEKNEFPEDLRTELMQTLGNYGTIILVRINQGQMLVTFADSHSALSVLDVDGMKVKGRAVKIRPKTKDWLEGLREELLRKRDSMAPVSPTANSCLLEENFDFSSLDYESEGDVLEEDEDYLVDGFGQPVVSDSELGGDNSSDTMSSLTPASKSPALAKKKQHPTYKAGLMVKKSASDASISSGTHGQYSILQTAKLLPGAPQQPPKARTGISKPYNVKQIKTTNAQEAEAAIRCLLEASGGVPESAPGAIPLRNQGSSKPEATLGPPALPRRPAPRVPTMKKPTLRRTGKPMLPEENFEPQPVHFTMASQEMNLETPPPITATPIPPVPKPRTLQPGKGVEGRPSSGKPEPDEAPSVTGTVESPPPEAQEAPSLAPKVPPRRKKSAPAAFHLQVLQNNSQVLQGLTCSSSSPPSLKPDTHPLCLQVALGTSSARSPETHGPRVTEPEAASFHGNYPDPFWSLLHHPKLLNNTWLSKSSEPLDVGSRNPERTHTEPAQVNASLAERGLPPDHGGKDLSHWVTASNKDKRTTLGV
UniProt Q9D883: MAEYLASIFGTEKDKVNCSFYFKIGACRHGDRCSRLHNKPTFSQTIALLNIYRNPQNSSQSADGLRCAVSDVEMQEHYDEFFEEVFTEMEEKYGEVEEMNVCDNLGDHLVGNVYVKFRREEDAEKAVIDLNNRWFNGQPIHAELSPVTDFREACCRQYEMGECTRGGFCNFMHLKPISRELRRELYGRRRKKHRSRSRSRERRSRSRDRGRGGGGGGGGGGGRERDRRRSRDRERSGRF
UniProt Q9D8M4, whole entry: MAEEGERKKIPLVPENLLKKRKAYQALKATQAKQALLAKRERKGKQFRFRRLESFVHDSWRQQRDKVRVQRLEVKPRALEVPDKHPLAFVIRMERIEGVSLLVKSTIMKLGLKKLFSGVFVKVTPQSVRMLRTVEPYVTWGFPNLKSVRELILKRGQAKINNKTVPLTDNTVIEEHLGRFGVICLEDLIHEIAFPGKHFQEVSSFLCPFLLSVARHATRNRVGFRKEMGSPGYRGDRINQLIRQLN
UniProt Q9DAC7: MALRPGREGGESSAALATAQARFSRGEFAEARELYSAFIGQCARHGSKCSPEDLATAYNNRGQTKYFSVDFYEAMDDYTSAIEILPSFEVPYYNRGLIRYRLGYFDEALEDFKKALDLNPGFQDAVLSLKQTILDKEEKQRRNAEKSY
UniProt Q9D9R0: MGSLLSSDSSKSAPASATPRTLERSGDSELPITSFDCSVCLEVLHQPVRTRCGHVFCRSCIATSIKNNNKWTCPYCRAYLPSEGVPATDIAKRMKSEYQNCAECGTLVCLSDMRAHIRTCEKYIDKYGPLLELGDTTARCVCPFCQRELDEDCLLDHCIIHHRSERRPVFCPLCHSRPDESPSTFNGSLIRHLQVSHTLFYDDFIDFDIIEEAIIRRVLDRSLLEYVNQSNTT

The targets below were run with CN[C@@H]1C[C@H]2O[C@@](C)([C@@H]1OC)n1c3ccccc3c3c4c(c5c6ccccc6n2c5c31)C(=O)NC4 [staurosporine] (assay: log2 fold change of tryptic peptide abundance, ligand vs vehicle (limited proteolysis) (log2 ratio); higher = more trypsin-susceptible (destabilized)). Conditions: ligand concentration: 20 uM; sample: mouse liver crude lysate; replicate design: treated separately.
“UniProt Q9D219 (peptide sequence: TDVGAPFGPQGHR, peptide start residue: 424)” showed a log2 fold change of 0.212.
“UniProt Q9D6N5 (peptide sequence: VAAAVPVIISR, peptide start residue: 30)” showed a log2 fold change of 0.149.
In the case of “UniProt Q9D6J3 (peptide sequence: AAARPNPTAILNEVPQTKR, peptide start residue: 224)”, the log2 fold change is reported as -0.185.
“UniProt Q9D8B3 (peptide sequence: IEQELTAAKK, peptide start residue: 47)” showed a log2 fold change of -0.204.
Target “UniProt Q9D824 (peptide sequence: YREYAER, peptide start residue: 494)” has a log2 fold change of 0.212.
With “UniProt Q9D1G2 (peptide sequence: LSGPLKEEYAR, peptide start residue: 43)” the log2 fold change was 0.275.
With “UniProt Q9D172 (peptide sequence: WPYAGTAEAIK, peptide start residue: 202)” the log2 fold change was 0.3.
“UniProt Q9D281 (peptide sequence: SLLSSASATVGHGLTAVKEK, peptide start residue: 136)” showed a log2 fold change of -0.204.
“UniProt Q9D2C2 (peptide sequence: LMLEWIR, peptide start residue: 217)” showed a log2 fold change of -0.208.
With “UniProt Q9D958 (peptide sequence: WLPVQDLGTEDKK, peptide start residue: 136)” the log2 fold change was 0.065.
“UniProt Q9D8W5 (peptide sequence: LCLAVKDYIR, peptide start residue: 192)” gave a log2 fold change of 1.36.
Target “UniProt Q9D819 (peptide sequence: VFLKNEK, peptide start residue: 19)” has a log2 fold change of -0.183.
“UniProt Q9D8M7 (peptide sequence: VIPNALCGICLK, peptide start residue: 373)” was tested, and the log2 fold change was -0.176.
Work on “UniProt Q9D1R9 (peptide sequence: TPGNRIVYLYTKK, peptide start residue: 25)” yielded a log2 fold change of -0.814.
For “UniProt Q9D1Q1 (peptide sequence: GFNPEVEK, peptide start residue: 79)”, the log2 fold change was -0.266.
Target “UniProt Q9D168 (peptide sequence: SSPITVQTSK, peptide start residue: 126)” has a log2 fold change of 0.193.
In the case of “UniProt Q9D753 (peptide sequence: TVEPLEYYR, peptide start residue: 7)”, the log2 fold change is reported as 0.0586.
“UniProt Q9D7A8 (peptide sequence: TVVLHIDGLDDTSRR, peptide start residue: 144)” was tested, and the log2 fold change was -0.427.
Work on “UniProt Q9D2R0 (peptide sequence: GIPYTLNGK, peptide start residue: 625)” yielded a log2 fold change of 0.158.
“UniProt Q9D379 (peptide sequence: KFVSLAELQ, peptide start residue: 447)” gave a log2 fold change of -0.504.
“UniProt Q9D2G5 (peptide sequence: TGISKPYNVK, peptide start residue: 1110)” was tested, and the log2 fold change was 0.305.
“UniProt Q9D883 (peptide sequence: GGFCNFMHLKPISR, peptide start residue: 166)” showed a log2 fold change of 0.127.
Target “UniProt Q9D8M4 (peptide sequence: EMGSPGYRGDR, peptide start residue: 227)” has a log2 fold change of 0.927.
Target “UniProt Q9DAC7 (peptide sequence: LGYFDEALEDFKK, peptide start residue: 102)” has a log2 fold change of 0.12.
“UniProt Q9D9R0 (peptide sequence: AYLPSEGVPATDIAKR, peptide start residue: 78)” showed a log2 fold change of -0.214.
